In all, about 340,000 compounds went through this assay and about 4,500 (1.3%) were called active. Inconclusive results, whose numbers are uncertain, are shown with a selection of clear calls. Calls follow the shape of the dose curve; as a rule, active = well fitted inhibition curve with a large enough effect; inconclusive = small, poorly fitted or top-dose-only effect, or another doubt; inactive = no such curve, though single readings can be large or run the other way. Potencies of inconclusive entries are doubtful fits and often do not repeat.
What follows are compounds tested against DNA polymerase beta (Homo sapiens) (UniProt P06746) (assay: qHTS Assay for Inhibitors of DNA Polymerase Beta). Settings: Pol beta primer extension/strand displacement, fluorescence kinetic; activity change, negative = inhibition: at 114 µM (top of the series).
Method in brief: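 Pol beta (10 nM) and compounds were preincubated 15 min at room temperature, then 50 nM substrate (final) started primer extension/strand displacement. Reads were taken at 0 and 10 min; concentration-response data were fitted to a four-parameter Hill equation.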
% is scaled to controls: 0 for no effect and ±100 for the full control effect; potency is read from the fitted curve at half-maximal effect.

| SMILES | Potency | activity change, negative = inhibition |
| --- | --- | --- |
| Cc1ccc(CNC(=O)C(=O)NCC(c2cccnc2)N2CCN(c3ccc(F)cc3)CC2)cc1 (configuration not stated) | inconclusive: 25.1 µM [inhibitor, single point] | – |
| O=C(C1CCCN(c2nnc(-n3cccc3)s2)C1)N1CCC2(CC1)OCCO2 (configuration not stated) | inconclusive: 79.4 µM [inhibitor, single point] | – |
| CCN1CCN(/C=N/c2nc(C)cs2)CC1 | inconclusive: 35.5 µM [inhibitor, partial curve] | – |
| O=C1NC(=O)N(c2ccccc2)C(=O)/C1=C\c1ccc([N+](=O)[O-])o1 | active: 7.94 µM | – |
| CCc1ccccc1N1C(=O)NC(=O)/C(=C\c2cc(C)n(C)c2C)C1=O | – | inactive: 8.01% |
| O=c1[nH]c(O)c(N=Nc2ccc(S(=O)(=O)N3CCOCC3)cc2)c(=O)[nH]1 | inconclusive: 39.8 µM [inhibitor, partial curve] | – |
| CCOP(=O)(C#CC(C)(C)C)C(C)(O)c1ccccc1 (configuration not stated) | – | inactive: 2.4% |
| C=CCN1C(=O)/C(=C/c2ccc(N3CCOCC3)o2)C(=O)NC1=S | inconclusive: 70.8 µM [inhibitor, single point] | – |
| O=C1C2CCN(CC2)C1Cc1ccccc1O (configuration not stated) | inconclusive: 89.1 µM [inhibitor, partial curve, poor fit] | – |
| Cc1ccc(N2C(=O)NC(=O)/C(=C\c3ccoc3)C2=O)cc1 | inconclusive: 100 µM [inhibitor, partial curve, poor fit] | – |
| O=C(O[C@@H]1Cc2c(O)cc(O)cc2O[C@@H]1c1cc(O)c(O)c(O)c1)c1cc(O)c(O)c(O)c1 | active: 0.447 µM | – |
| CCCCn1c(NC(=O)c2ccc(Br)o2)c(C(=O)OCC)c2nc3ccccc3nc21 | inconclusive: 79.4 µM [inhibitor, single point] | – |
| N#Cc1c(/N=C/c2ccc(O)cc2O)sc2c1C1CCN2CC1 | inconclusive: 39.8 µM [inhibitor, single point] | – |
| CCCNS(=O)(=O)c1ccc(OCC(=O)N2CCN(Cc3ccccc3)CC2)cc1 | inconclusive: 100 µM [inhibitor, single point] | – |
| CCC12CN3CC(CC)(CN(C1)C3c1c(C)[nH]c(=O)[nH]c1=O)C2=O (configuration not stated) | – | inactive: 4.53% |
| O=c1c2ccccc2nc(/C=C/c2ccccc2F)n1-c1ccccc1O | – | inconclusive: -32% [inhibitor] |
| Cc1cccn2c(=O)c3c(nc12)N1CCC(Cc2ccccc2)CC1C1(C3)C(=O)N(C)C(=O)N(C)C1=O (configuration not stated) | inconclusive: 89.1 µM [inhibitor, single point] | – |
| Cc1ccc2c(c1)=NC(=O)/C(=C/c1c(O)[nH]c(=O)[nH]c1=O)C=2 | – | inactive: -1.6% |
| Cc1cccc(-n2c(/C=C/c3ccc([N+](=O)[O-])o3)nc3ccccc3c2=O)c1 | inconclusive: 14.1 µM [inhibitor, partial curve, poor fit] | – |
| O=C(NCc1cccnc1)Nc1ccc([N+](=O)[O-])cc1 | – | inconclusive: -44.4% [inhibitor] |
| CN1CCC(N(C)c2nc(-c3ccccc3)nc3ccccc23)CC1 | inconclusive: 28.2 µM [inhibitor, partial curve, poor fit] | – |
| COc1ccc2c(CN3CC=C(c4ccccc4)CC3)cc(=O)oc2c1 | inconclusive: 89.1 µM [inhibitor, single point] | – |
| O=C1NC(=O)N(Cc2ccc(F)cc2)C(=O)/C1=C/c1cccs1 | active: 89.1 µM | – |

2 of the compounds above, as tab-separated lines:
SMILES	Potency	activity change, negative = inhibition
CCc1ccccc1N1C(=O)NC(=O)/C(=C\c2cc(C)n(C)c2C)C1=O	–	inactive: 8.01%
O=c1[nH]c(O)c(N=Nc2ccc(S(=O)(=O)N3CCOCC3)cc2)c(=O)[nH]1	inconclusive: 39.8 µM [inhibitor, partial curve]	–

Next part

| SMILES | Potency | activity change, negative = inhibition |
| --- | --- | --- |
| Cc1ccc(-n2c(C)cc(/C=C3/C(=O)NC(=O)N(Cc4ccco4)C3=O)c2C)cc1 | inconclusive: 17.8 µM [inhibitor, partial curve] | – |
| Cc1cc(C=C2C(=O)N(C)C(=S)N(C)C2=O)c(C)n1C1CCCC1 | inconclusive: 100 µM [inhibitor, single point] | – |
| CN(C)C(Cc1ccccc1)C(=O)c1cccs1 (configuration not stated) | inconclusive: 39.8 µM [inhibitor, full curve, poor fit] | – |
| Cc1cc(N2CCCCC2)nc2ccc(NC(=O)CCC(=O)N3CCN(c4cccc(Cl)c4)CC3)cc12 | inconclusive: 89.1 µM [inhibitor, single point] | – |
| O=C(Nc1ccc2nc(SCC(=O)N3CCCc4ccccc43)sc2c1)c1cccc(F)c1 | inconclusive: 89.1 µM [inhibitor, single point] | – |
| C=CCN(CC#CCOc1ccccc1OC)CC=C | inconclusive: 89.1 µM [inhibitor, single point] | – |
| Cc1ccc2c(c1Cl)NC(C(=O)O)C1CC(Sc3ccccc3[N+](=O)[O-])C(Cl)C21 (configuration not stated) | – | inconclusive: -87.7% [inhibitor] |
| O=C1NC(=S)NC(=O)C1=Cc1ccc(OCC(=O)N2CCCC2)cc1 | active: 50.1 µM | – |
| COc1ccc(C2/C=C\CN(C(=O)Oc3ccc(C(F)(F)F)cc3)CC(=O)N2Cc2ccc(F)cc2)cc1 (configuration not stated) | inconclusive: 63.1 µM [inhibitor, partial curve, poor fit] | – |
| COc1cc(/C=C2/C(=O)NC(=O)N(c3ccc(C)cc3)C2=O)cc(OC)c1OC | – | inactive: -23% |
| COc1ccc(NC(=O)C2CCCN(S(=O)(=O)c3ccc4c(c3)oc(=O)n4C)C2)cc1OC (configuration not stated) | inconclusive: 4.47 µM [inhibitor, single point] | – |
| C[n+]1c(-c2ccccc2)cc(-c2ccc(Cl)cc2)cc1-c1ccccc1 | inconclusive: 89.1 µM [inhibitor, single point] | – |
| CC(C)Cc1[nH]c(=O)c(C#N)c2c1CCC2 | – | inactive: 5.41% |
| CCc1ccc(OCC(=O)N2CCN(Cc3ccc4c(c3)OCO4)CC2)cc1 | inconclusive: 89.1 µM [inhibitor, single point] | – |
| Cc1ccc(N2C(=O)NC(=O)/C(=C/c3ccoc3)C2=O)cc1 | – | inconclusive: -102% [inhibitor] |
| CN(C)c1ccc(/C=C/C=C/c2sc3ccccc3[n+]2C)cc1 | inconclusive: 25.1 µM [inhibitor, single point] | – |
| COc1ccc(N2C(=O)NC(=O)/C(=C/c3cccc(OC(=O)c4cccs4)c3)C2=O)cc1Cl | – | inactive: -9.81% |
| COc1ccc2c3c1OC1CC(O)C=CC31CCN(C)C2 (configuration not stated) | inconclusive: 15.8 µM [inhibitor, partial curve] | – |
| CNCCc1ccc(OC)c(OC)c1 | inconclusive: 5.01 µM [inhibitor, full curve, poor fit] | – |
| CCOC(=O)c1c(C)n(Cc2ccco2)c2ccc(O)cc12 | inconclusive: 15.8 µM [inhibitor, full curve] | – |
| O=C1NC(=O)N(c2ccccc2)C(=O)/C1=C\c1ccc([N+](=O)[O-])s1 | – | inconclusive: -108% [inhibitor] |
| O=c1c2ccccc2nc(/C=C/c2ccc(O)c(O)c2)n1-c1ccccc1 | inconclusive: 50.1 µM [inhibitor, partial curve] | – |
| O=C(O)c1cccc2c1NC(C(=O)O)C1CC(Sc3ccccc3[N+](=O)[O-])C(Cl)C21 (configuration not stated) | active: 2.82 µM | – |

Entries from the list above with four or more nitrogen atoms (10):

| SMILES | Potency | activity change, negative = inhibition |
| --- | --- | --- |
| Cc1ccc(CNC(=O)C(=O)NCC(c2cccnc2)N2CCN(c3ccc(F)cc3)CC2)cc1 (configuration not stated) | inconclusive: 25.1 µM [inhibitor, single point] | – |
| O=C(C1CCCN(c2nnc(-n3cccc3)s2)C1)N1CCC2(CC1)OCCO2 (configuration not stated) | inconclusive: 79.4 µM [inhibitor, single point] | – |
| CCN1CCN(/C=N/c2nc(C)cs2)CC1 | inconclusive: 35.5 µM [inhibitor, partial curve] | – |
| O=c1[nH]c(O)c(N=Nc2ccc(S(=O)(=O)N3CCOCC3)cc2)c(=O)[nH]1 | inconclusive: 39.8 µM [inhibitor, partial curve] | – |
| CCCCn1c(NC(=O)c2ccc(Br)o2)c(C(=O)OCC)c2nc3ccccc3nc21 | inconclusive: 79.4 µM [inhibitor, single point] | – |
| CCC12CN3CC(CC)(CN(C1)C3c1c(C)[nH]c(=O)[nH]c1=O)C2=O (configuration not stated) | – | inactive: 4.53% |
| Cc1cccn2c(=O)c3c(nc12)N1CCC(Cc2ccccc2)CC1C1(C3)C(=O)N(C)C(=O)N(C)C1=O (configuration not stated) | inconclusive: 89.1 µM [inhibitor, single point] | – |
| O=C(NCc1cccnc1)Nc1ccc([N+](=O)[O-])cc1 | – | inconclusive: -44.4% [inhibitor] |
| CN1CCC(N(C)c2nc(-c3ccccc3)nc3ccccc23)CC1 | inconclusive: 28.2 µM [inhibitor, partial curve, poor fit] | – |
| Cc1cc(N2CCCCC2)nc2ccc(NC(=O)CCC(=O)N3CCN(c4cccc(Cl)c4)CC3)cc12 | inconclusive: 89.1 µM [inhibitor, single point] | – |

Further compounds follow:

| SMILES | Potency | activity change, negative = inhibition |
| --- | --- | --- |
| O=C(NCc1ccco1)c1ccc(Cn2c(=O)c3ccccc3n(Cc3cccc(F)c3)c2=O)cc1 | inconclusive: 8.91 µM [inhibitor, full curve] | – |
| COc1cc(OC)c(OC)cc1CNCCc1ccc2c(c1)OCO2 | inconclusive: 39.8 µM [inhibitor, single point] | – |
| NS(=O)(=O)c1ccc(-c2ccc(C=C3C(=O)NC(=S)NC3=O)o2)cc1 | inconclusive: 22.4 µM [inhibitor, full curve] | – |
| CCOC(=O)c1c(/N=C/C2C(=O)NC(=S)NC2=O)sc(C)c1C | – | inactive: 17% |
| Cc1cc(C=C2C(=O)N(C)C(=O)N(C)C2=O)c(C)n1-c1ccccc1 | – | inactive: 2.63% |
| Cc1ccc(Oc2cnn(-c3ccccc3)c(=O)c2Br)cc1 | inconclusive: 89.1 µM [inhibitor, single point] | – |
| Cc1cccc(N2C(=O)NC(=O)/C(=C\c3cnn(-c4ccccc4)c3)C2=O)c1 | active: 39.8 µM | – |
| Cc1cccc(NC(=O)c2cc3c(=O)n4ccccc4nc3n2C)c1C | inconclusive: 79.4 µM [inhibitor, partial curve, poor fit] | – |
| CC/C(=C\C=C\[C@@H]1C=C[C@@H]2CCC[C@H]2[C@@H]1C(=O)c1ccc[nH]1)[C@@H]1O[C@@H]([C@@H](C)C(=O)O)CC[C@@H]1C | inconclusive: 89.1 µM [inhibitor, single point] | – |
| O=C(N/N=C/c1c(O)n(C2CCCCC2)c(=S)[nH]c1=O)c1ccccc1 | – | inactive: 20.2% |
| CN1C(=O)/C(=C\c2ccc(Br)s2)C(=O)NC1=S | inconclusive: 89.1 µM [inhibitor, single point] | – |
| Cc1cc(C)cc(N2C(=O)NC(=O)/C(=C\C=C\c3ccco3)C2=O)c1 | active: 28.2 µM | – |
| Cc1cc(N2CCOCC2)ccc1/C=C1\C(=O)NC(=O)N(c2ccccc2)C1=O | – | inactive: -17.8% |
| C=CCn1c(O)c(/C=C2/C=CC=N2)c(=O)[nH]c1=O | – | inactive: 19.4% |
| CN1C(=O)C(=Cc2ccc(N3CCOCC3)c([N+](=O)[O-])c2)C(=O)N(C)C1=O | – | inactive: 7.92% |
| ClC1=C(Cl)C(Cl)=C(Cl)C1=C/C=C/c1ccccc1 | inconclusive: 39.8 µM [inhibitor, partial curve] | – |
| O=C1NC(=O)N(CCC2=CCCCC2)C(=O)/C1=C/c1cccs1 | inconclusive: 10 µM [inhibitor, full curve, poor fit] | – |
| NC(=O)C1CCN(/C=C2\C(=O)NC(=O)N(Cc3ccco3)C2=O)CC1 | – | inconclusive: -118% [inhibitor] |
| Cc1cc(/C=C2\C(=O)NC(=O)N(c3ccc(Br)cc3)C2=O)c(C)n1-c1cc(C(=O)O)cc(C(=O)O)c1 | active: 28.2 µM | – |
| CC/C(=N\Nc1ccccc1)c1c(O)n(-c2ccccc2)c(=O)[nH]c1=O | – | inactive: 2.46% |
| O=C1NC(=O)N(c2ccccc2)C(=O)/C1=C/C=C/c1ccco1 | – | inconclusive: -61% [inhibitor] |

From PubChem BioAssay AID485314 (National Center for Advancing Translational Sciences (NCATS), 2010)
